The record followed here is PMC7447793.

No constants are given. Whether binding was seen depends on the method and setting. Binding seen in cells or lysates may run through a third protein. Some binding calls cover weakened binding; strength is not graded here. Sequences can lack the tags named with a protein.

The assay deals with T1, Flag-TIPE (tumor necrosis factor α-induced protein 8) (UniProt O95379).
T1 sequence: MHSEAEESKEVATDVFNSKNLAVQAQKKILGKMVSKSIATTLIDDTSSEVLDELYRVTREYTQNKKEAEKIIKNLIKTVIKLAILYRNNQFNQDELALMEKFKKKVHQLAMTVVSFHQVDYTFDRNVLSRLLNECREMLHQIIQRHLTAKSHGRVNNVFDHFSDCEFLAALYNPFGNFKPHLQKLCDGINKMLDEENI
In words: co-IP; HEK293T cells co-transfected with expression plasmids for Flag-TIPE and HA-MKK-3; whole-cell lysates analyzed by co-immunoprecipitation.

B1: HA-MKK-3 (mitogen-activated protein kinase kinase 3) (protein, UniProt P46734 1-347)
chain: MESPASSQPASMPQSKGKSKRKKDLRISCMSKPPAPNPTPPRNLDSRTFITIGDRNFEVEADDLVTISELGRGAYGVVEKVRHAQSGTIMAVKRIRATVNSQEQKRLLMDLDINMRTVDCFYTVTFYGALFREGDVWICMELMDTSLDKFYRKVLDKNMTIPEDILGEIAVSIVRALEHLHSKLSVIHRDVKPSNVLINKEGHVKMCDFGISGYLVDSVAKTMDAGCKPYMAPERINPELNQKGYNVKSDVWSLGITMIEMAILRFPYESWGTPFQQLKQVVEEPSPQLPADRFSPEFVDFTAQCLRKNPAERMSYLELMEHPFFTLHKTKKTDIAAFVKEILGEDS
For the molecule B1, the binding entry is given as “binds”.
